## Results of single-concentration screens

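Phenotypic screen: M. tuberculosis growth, cholesterol and DPPC medium, 4 days; the read-out is not stated. Tested at 500 µM. Direction is inferred from retests: higher values go with more growth inhibition. About 18,000 compounds were tested under these conditions; 5% (about 900) showed 50% or more at least once.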

The filed quantity is “Percent Effect” (%). How 0% and 100% were set is not recorded. Most values in the screen are low, and negative values occur. Compounds were drawn at random from those tested, without regard to their results.

| compound | Percent Effect |
|---|---|
| `CNC(=O)N1CCN(c2ccc(Cl)cn2)CC1` | -18.01 |
| `CCCS(=O)(=O)N1C[C@H](c2ccc(OC)cc2)[C@@H](N)C1` | 17.52 |
| `CCOc1cccc(OCCNCCN)c1` | -3.295 |
| `NCc1nc(-c2cccc(C(F)(F)F)c2)no1` | 73.84 |
| `COCC(=O)N1CCN(Cc2csc(C)n2)CC1` | 2.161 |
| `COc1c(C)cnc(CNC(=O)CSC)c1C` | -8.149 |
| `CCCOC1CCCN(C(=O)CCn2cnnn2)C1` (centres undefined) | 2.713 |
| `CC(C)N1CCC(NCCc2ccccn2)CC1` | -15.94 |
| `Cc1cccc(C)c1CN1CCOC(C(N)=O)C1` (centres undefined) | -18.26 |
| `CCc1nc(CN2CCN(c3cnccn3)CC2)n[nH]1` | -7.135 |
| `Cc1ncc(C(=O)N2C[C@@H]3CCCN[C@@H]3C2)c(C)n1` | -30.17 |
| `CC1CCN(S(=O)(=O)NC(C)C(C)C)CC1` (centres undefined) | 57.76 |
| `COCC(C)(N)c1ccccc1` (centres undefined) | -13.73 |
| `COCC(=O)N(C)C1CCc2ccccc21` (centres undefined) | 14.8 |
| `CCCC1C(=O)NCCN1C(=O)c1ccc(Br)c(O)c1` (centres undefined) | -4.697 |
| `Cc1cc(CNC(=O)CN(C)Cc2cccnc2)n[nH]1` | -0.771 |
| `Cc1nc(C(=O)Nc2ccc(C(N)=O)cc2)co1` | 3.631 |
| `COCCN(c1ccncc1)S(=O)(=O)c1cccs1` | -6.639 |
| `O[C@H]1CCN(c2ncnc3ccccc23)C1` | -6.792 |
| `CC(C)C(Nc1ccncc1Cl)C(=O)N1CCOCC1` (centres undefined) | 5.157 |
| `CC(C)n1cccc1C(=O)N1C[C@H](C2CC2)[C@@H](N)C1` | 19.56 |
| `COc1ccc(CNC(=O)CN)cc1` | 6.39 |
| `N#Cc1ccc(-c2nnc(CN3CCC(O)C3)o2)cc1` (centres undefined) | 5.947 |
| `Cc1nn(C)c(C)c1C(C)NC(=O)C1CC1` (centres undefined) | 4.599 |
| `CCC1CN(C)c2ccccc2CN1CCC(=O)NC` (centres undefined) | 11.34 |
| `CCc1nc(N2CCN(C)C(CCO)C2)ncc1C` (centres undefined) | 7.836 |
| `COc1ccc(CN)cn1` | -7.229 |
| `Cn1cc(S(=O)(=O)NCCc2cccnc2)cn1` | -15.41 |
| `OC1CN(c2nccc(C(F)(F)F)n2)C1` | 13.3 |
| `CCOC(=O)c1cnccc1N` | -7.678 |
| `CCc1noc(C)c1C(=O)Nc1cccnc1` | -5.2 |
| `CCC(=O)NC1CCCc2occc21` (centres undefined) | -1.093 |
| `CCNS(=O)(=O)C1CCN(Cc2ccc(C#N)o2)C1` (centres undefined) | 8.333 |
| `COC(=O)CNC(=O)CCc1nc2ccccc2s1` | -3.814 |
| `Cc1nnc(SCC(=O)Nc2ccccc2C#N)[nH]1` | 1.585 |
| `c1cc(C2CCNCC2)n[nH]1` | -4.337 |
| `COc1ccc(NC(=O)c2cnccn2)cc1F` | 0.2841 |
| `NC(=O)C1CCN(c2ncnc3ccsc23)CC1` | 4.848 |
| `Cc1c(C(=O)N(C)Cc2ccc(C#N)cc2)cnn1C` | 7.854 |
| `CC(CO)NC(=O)CN(c1cccc(F)c1)S(C)(=O)=O` (centres undefined) | 7.195 |
| `CC1(C)CCCN1C(=O)NCCCF` | 5.475 |
| `NC(=O)CN(CCCO)Cc1ccccc1` | 6.995 |
| `CCN(Cc1nnc(C)o1)C1CNC[C@H]1O` (some centres undefined) | -8.786 |
| `CCNCCOc1cccc(OCC)c1` | 33.29 |
| `CNC1CCN(C(=O)OC(C)(C)C)CC1` | -3.744 |
| `CN(C)c1ncccc1CNC(=O)NCC1CCCO1` (centres undefined) | -7.532 |
| `CC(=O)c1cnccn1` | -2.578 |
| `Cc1ncn(Cc2cc(=O)n3ccsc3n2)c(=O)c1C` | -4.854 |
| `COc1ccc(-n2ccnc2SCC(=O)N(C)C)cc1` | 10.91 |
| `CC(NC(N)=O)C(=O)NCCc1ccc(Cl)cc1` (centres undefined) | 37.68 |
| `Cc1cc(Br)cn(CC(O)COC(C)C)c1=O` (centres undefined) | -0.918 |
| `CNCC(=O)Nc1ccc(Br)cc1C` | 38.13 |
| `CN(Cc1ccc(N)nc1)c1cccc(C#N)n1` | 14.27 |
| `c1csc(C2CCNCC2)n1` | 6.262 |

Some entries from above, unchanged:

NC(=O)C1CCN(c2ncnc3ccsc23)CC1 read 4.848%.
CC1CCN(S(=O)(=O)NC(C)C(C)C)CC1 (centres undefined) read 57.76%.
CCOc1cccc(OCCNCCN)c1 read -3.295%.
Cc1cc(Br)cn(CC(O)COC(C)C)c1=O (centres undefined) read -0.918%.
CC1(C)CCCN1C(=O)NCCCF read 5.475%.
Cc1nnc(SCC(=O)Nc2ccccc2C#N)[nH]1 read 1.585%.

Measurements from “University of Dundee, Small-Polar-MMV Screening Library” (2021), ChEMBL document CHEMBL3988442.